{"source": "patent US20170089887A1", "about": "“CONTRACTILITY ASSAY” (Nano3D Biosciences, Inc, priority 2011, published 2017)", "origin": "cited, not measured here", "test_system": "preterm labor", "conditions": "clinical dose per Table 1; as recommended by the manufacturer; cited from earlier work", "note": "At least one structure is not confirmed: it was looked up by name or label, or the drawing left a doubt.", "data": [{"smiles": "COC(=O)C1=C(C)NC(C)=C(C(=O)OC)C1c1ccccc1[N+](=O)[O-]", "note": "[Nifedipine]", "values": [{"measurement": "Onsef of action", "result": 30, "unit": "min"}]}]}
